{"sequences": {"note": "The chains behind the UniProt entries cited, without tags or fusion partners.", "UniProt Q25531": "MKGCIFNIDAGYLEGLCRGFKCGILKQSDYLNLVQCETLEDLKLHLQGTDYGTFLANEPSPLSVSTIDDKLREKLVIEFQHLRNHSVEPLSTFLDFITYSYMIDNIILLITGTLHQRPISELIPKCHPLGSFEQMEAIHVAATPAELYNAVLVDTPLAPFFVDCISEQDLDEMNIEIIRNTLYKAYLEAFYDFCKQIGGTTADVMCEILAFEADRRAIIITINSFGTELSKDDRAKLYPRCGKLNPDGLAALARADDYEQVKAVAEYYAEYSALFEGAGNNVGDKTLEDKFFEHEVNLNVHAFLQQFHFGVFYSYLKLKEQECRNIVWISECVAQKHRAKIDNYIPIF", "UniProt Q9U5N1": "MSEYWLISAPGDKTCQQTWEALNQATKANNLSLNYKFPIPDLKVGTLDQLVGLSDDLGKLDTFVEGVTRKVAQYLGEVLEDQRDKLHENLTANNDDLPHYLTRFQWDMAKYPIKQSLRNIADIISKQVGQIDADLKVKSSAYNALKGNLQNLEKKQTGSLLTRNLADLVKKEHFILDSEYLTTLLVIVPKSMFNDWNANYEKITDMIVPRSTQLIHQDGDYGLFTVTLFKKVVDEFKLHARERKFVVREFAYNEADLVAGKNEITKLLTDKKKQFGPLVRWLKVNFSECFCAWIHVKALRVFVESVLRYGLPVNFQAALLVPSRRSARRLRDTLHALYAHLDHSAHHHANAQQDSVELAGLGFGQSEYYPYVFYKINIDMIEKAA"}, "source": "paper PMC4353692", "biological_target": "Manduca sexta V-ATPase subunit d (Manduca sexta (endogenous in midgut)) (UniProt Q25531)", "test": "cryo-EM structure; M. sexta V-ATPase holoenzyme purified from tissue, in C12E10; 9.4 Å reconstruction (gold standard FSC 0.143); homology models of the subunits flexibly fitted by MDFF; side chains not resolved; both purified", "note": "These are yes or no findings as the source states them, for the method shown.", "data": [{"substance": "Manduca sexta V-ATPase subunit C (from UniProt Q9U5N1 1-385)", "values": [{"measurement": "binding", "value": "no binding"}]}]}
